Source: doi:10.1101/2024.08.19.608690
These are yes or no findings as the source states them, for the method shown. Binding seen in cells or lysates may run through a third protein. Tags and fused reporters may be left off the sequences shown.

Molecular target: T1, GST-SH2-SHC1 (UniProt P29353)
T1 sequence: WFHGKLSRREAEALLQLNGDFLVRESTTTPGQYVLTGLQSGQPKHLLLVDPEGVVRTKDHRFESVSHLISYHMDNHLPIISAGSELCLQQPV
Test: pull-down

N-terminus deleted IGPR-1 (human) (domain or fragment)
binding: no binding
